Part of at least one peptide drawing is inferred or uncertain, most often the ends. Where no end group is shown, it is not given here.
What was measured:
[1] = molecular target: purified human Factor IXa (Homo sapiens, UniProt P00740); assay: Factor IXa binding to immobilized synthetic peptides (ELISA-derived technique); parameters: made in house; details: 0.8 nmol immobilized peptide per well; 50 nM Factor IXa, 1 hour at 37° C.; absorbance at 450 nm (FIG. 3)
[2] = test system: intrinsic coagulation pathway; assay: APTT test (Activated Partial Thromboplastin Time), human plasma; type: biochemical
[3] = test system: extrinsic coagulation pathway; assay: PT test (Prothrombin Time), human plasma; type: biochemical; details: FIG. 5A
[4] = test system: intrinsic coagulation pathway; assay: APTT test, rabbit plasma; type: biochemical; details: FIG. 5B
[5] = test system: extrinsic coagulation pathway; assay: PT test, rabbit plasma; type: biochemical; details: FIG. 5B

Sequences of proteins named here, by UniProt entry; tags and fusion partners are left off. Residues count along the entry.
UniProt P00740, 227-461 limits assumed: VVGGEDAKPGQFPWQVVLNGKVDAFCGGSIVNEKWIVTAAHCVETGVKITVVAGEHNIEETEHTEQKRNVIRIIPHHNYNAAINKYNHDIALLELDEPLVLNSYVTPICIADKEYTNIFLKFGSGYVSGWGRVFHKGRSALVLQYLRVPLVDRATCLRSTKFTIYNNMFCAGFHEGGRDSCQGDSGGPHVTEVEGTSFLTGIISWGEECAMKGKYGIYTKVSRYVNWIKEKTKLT
UniProt P00740, 47-191 limits assumed: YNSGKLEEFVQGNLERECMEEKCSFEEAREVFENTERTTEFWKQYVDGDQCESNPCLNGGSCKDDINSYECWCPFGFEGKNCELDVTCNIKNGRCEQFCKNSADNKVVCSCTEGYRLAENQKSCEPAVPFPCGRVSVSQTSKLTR

Sequence	Factor IXa binding [1]	IC50 ([2]; APTT test, see FIG. 5 (human and rabbit plasma), read-out: Half-maximal inhibition)	effect in the APTT test ([2]; human citrated platelet-poor plasma, FIG. 5A)	effect in the PT test [3]	APTT prolongation [4]	effect on extrinsic coagulation pathway (PT) [5]
ETKTYFWKVQ [ETKTYFWKVQ]	particularly effective in Factor IXa binding					
KNFVKPNETKTYFWK [KNFVKPNETKTYFWK]	particularly effective in Factor IXa binding	~300 µM	particular effective in inhibiting	completely unaffected	5 fold	unaffected

Source: patent publication US6284871A, “Factor IX binding peptides, derived from factor VIII and their use as inhibitors of blood coagulation” (Stiching Centraal Laboratorium van de Bloedtransfusiedienst …, priority 1995, dated 2001)
